In PubChem BioAssay AID1347423 (Functional Genomics Laboratory (NCATS/FGL), 2020):
The whole screen tested about 52,000 sequences, of which about 210 (0.4%) were called active.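 How the source made its calls: active means gene whose silencing raises cell survival under the drug, median off-target-corrected z-score across its silencing RNAs 2 or more; inactive means the rest.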 This is one part of the list.

Test: Resistance to Poly (ADP-Ribose) Polymerase inhibitor: Gene Identification via Genome-wide siRNA Screen
Conditions: mouse BRCA2 R2336H ES cells, olaparib, CellTiter-Glo viability; active compounds read high
Outline: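 Genome-wide siRNA screen (3 siRNAs/gene, 20 nM) in mouse ES cells carrying hypomorphic BRCA2 R2336H; olaparib 500 nM added 48 h post-transfection, CellTiter-Glo viability 72 h later. Normalized to plate-median negative control; MAD z-scores, gene median, seed-adjusted.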
With CCUGGUGAUUAGUACUUUATT against Grpel1 the z-score was inactive: -0.612. With GGACCAAGAUUGGUUUCAGTT against Fbxo45 the z-score was inactive: 1.24. With GCUAUGUGGACGUGACCUATT against Chrnb4 the z-score was inactive: -1.95. In the case of GGACCUACGUGUAUGUGCUTT against Nudt3, the z-score is reported as inactive: -0.364. For CCAAGAGAUGCUAGCUAAUTT against LOC434225, the z-score was inactive: 0.44. In the case of GGAUGACUAUUUCAGAAACTT against Spock1, the z-score is reported as inactive: 0.26. In the case of GGCUAGAAGAUAAAGAUGATT against Tmpo, the z-score is reported as inactive: -0.823. With GGUGAUGCCUGUGAAGACATT against Il3ra the z-score was inactive: 0.406. In the case of GGAUUUGUUUUCACCAAGATT against Dmd, the z-score is reported as inactive: -1.14. In the case of CCCGAUUACUGGAGUUAAATT against Gm295, the z-score is reported as inactive: 0.0418. With GGAAAAACAUCUCUUGCUUTT against Calcb the z-score was inactive: -0.641. With GCUUAUAGAGGAGAACCGUTT against Thrb the z-score was inactive: -0.457. For GGCGACAAGCAUUAUCAUCTT against Ablim1, the z-score was inactive: -0.0334. In the case of GGAUACUUCUCCAUUUUCUTT against C1r, the z-score is reported as inactive: -0.36. In the case of GGACCAGCUCAGUCAAACATT against Slc39a4, the z-score is reported as inactive: -0.888. In the case of CGGAUUUUGAAGUACACCGTT against Alg8, the z-score is reported as inactive: -0.197. In the case of GCAAUGGAACUAUUAUUCATT against Cd28, the z-score is reported as inactive: -0.649. With “GGUUUGAUCCUCCACAUUCTT against 8430423A01Rik” the z-score was inactive: -1.97. In the case of GGCUUCUGAUACAUAUAUCTT against G6pc2, the z-score is reported as inactive: 1.49. With CACGAUGUGGAGCAUGUGCTT against Pfdn5 the z-score was inactive: 0.128. In the case of GGCUAUGAGAAUCACAUAATT against Tpo, the z-score is reported as inactive: -0.984. For GGUCUUUUUGAAUAGAGUATT against BC038479, the z-score was inactive: -0.691. For “GGAAUUUGAUUCUCUGCCUTT against 6820429M01”, the z-score was inactive: 0.0636. With GCAUGUUUAGAACUAGCUCTT against Zfp87 the z-score was inactive: -0.922. With “GGUCAACGUAAAUUGUUCATT against 4833424O15Rik” the z-score was inactive: -1.28. In the case of GGGACAAUUAGAAAGACAUTT against Mtif2, the z-score is reported as inactive: -0.55. For “GCUGGGACCUCAGAAAGUUTT against D630047F21Rik”, the z-score was inactive: 0.365. With CCUCCUGGAAGGGAUCAUGTT against BC025600 the z-score was inactive: -2.37. With “GCUUCAUAACACAAACGGATT against 4930500C15Rik” the z-score was inactive: -0.366. For GGAAAAGGUGGAAAAGAUATT against AA536743, the z-score was inactive: 0.265. With CCAGUGAAAAAAAUGCCAUTT against Olfr344 the z-score was inactive: 1.08. In the case of CGGUUUACGCCACAAAAGUTT against Rprm, the z-score is reported as inactive: -0.0947. For CCAUUCGAGAUGAGAAGAATT against Gcc1, the z-score was inactive: -1.26. With GCUCUAUAUCCAGGAAACUTT against Krtap6-2 the z-score was inactive: -0.626. For “GCACUUUGCACACUUAUUATT against 4932408B21Rik”, the z-score was inactive: 0.409. With GGCAGUACCUUACAUUUAATT against Galnt7 the z-score was inactive: 0.777. For “GGGUGUAUUCUGCUUUGUATT against 2600013N14Rik”, the z-score was inactive: -1.3. For GGUCAAAUGGUGAAAAAGUTT against Stxbp5l, the z-score was inactive: -1.01. For GGACUGUGACCUCAAAAAGTT against Gsbs, the z-score was inactive: 1. For CCGCCCGCUCAACACUAAUTT against Zfp36l3, the z-score was inactive: 1.79. With GGUUGACUGAAGUAAUAGCTT against Sdccag1 the z-score was inactive: 0.267. With GGCGGUCAAGGGAAAAACATT against Tcf7 the z-score was inactive: 0.0331. With CCAAUAUGCUCAGUAUUACTT against Eya4 the z-score was inactive: 0.581. For “GCUGCAUUUUUUGGCAGAGTT against 2010308M01Rik”, the z-score was inactive: -0.103. With “GGAGAGGAGAGUCUUGGAATT against 3110082I17Rik” the z-score was inactive: -0.715. With CCGCUUUUCAUAACACGAATT against BC027556 the z-score was inactive: -1.41. In the case of “GGUGUAACUCCUUCAUUGATT against 6330500D04Rik”, the z-score is reported as inactive: 0.286. With “GCCGCUACUCUCCUCAAAATT against 1110007C09Rik” the z-score was inactive: 1.02. With GGGUUUUACUAUGUAGCUCTT against Olfr94 the z-score was inactive: -0.385. For CCGCAAAGUGAGCAAGGUGTT against Idb1, the z-score was inactive: 0.999. With GCUUGCUGACAUGAUUCCUTT against Ndrg2 the z-score was inactive: -1.31. For GGUUGGUUUGGAGAAGGCATT against Krt1-24, the z-score was inactive: -0.372. With GGAGACCCUUGAUAGCCCATT against Brunol6 the z-score was inactive: -0.0402. With GCUGGAAAACCGACAACUCTT against DXImx47e the z-score was inactive: 0.872. With GGUUUGCCUGUGCUGAUAUTT against Olfr549 the z-score was inactive: -0.43. With “CGAAUAGAUCAAGUGAGACTT against 1700001L23Rik” the z-score was inactive: 0.253. For “GGAGAAAUAAGAAAUUUGGTT against 1700047E16Rik”, the z-score was inactive: 0.279. For GCCUCACAGAUUGAUAAUATT against Akt3, the z-score was inactive: 0.735. In the case of GCUUCACGAUUAAAACUAATT against Ltb4r1, the z-score is reported as inactive: 0.736. For CGUCAUGCAUUUUUCUAAATT against Trim24, the z-score was inactive: 0.844. For GGUCCCUGUGAACAAGCUGTT against Serpinf1, the z-score was inactive: -1.16. With “GGAAGGUUGCUGAAGAACGTT against 6030449J21” the z-score was inactive: 1.17. With CGGCCUCAGUUUAGAAUUATT against Plat the z-score was inactive: 0.114. In the case of “GGAACUCCUUAAUUGAACATT against A930009M04Rik”, the z-score is reported as inactive: -0.175. With GUAAGGUAUUCAGUGACCUTT against Olfml2a the z-score was inactive: -0.54. For GGACUCCCUGAAGUAGUGATT against V1re2, the z-score was inactive: -0.491. In the case of GGUGGAUUUCUACUAUGAUTT against Abcf3, the z-score is reported as inactive: 0.476. With GCUACUUGGAGUCUAUUUGTT against C1ql3 the z-score was inactive: -0.795. For CCUAUGGCCAUUAUGAGCCTT against Rcn3, the z-score was inactive: 1.18. With “GGCGUAGGUUCUUUACUGGTT against 3110007P09Rik” the z-score was inactive: 0.991. With GCAUUGGCUGUACUACUAUTT against Psg18 the z-score was inactive: -0.196. With GGCCACCGUUCAAAAAAUUTT against Dctn5 the z-score was inactive: -1.81. With GGCAAAUUAGAGGAAAAGUTT against Zfp354a the z-score was inactive: 0.566. With GAGCAUCUGUGUAGAAGUGTT against Thrsp the z-score was inactive: -1.03. For GGAUGCAGAGACCUAUUUCTT against Cacng5, the z-score was inactive: -0.0995. For CGAGAAAUUGUAGAAGUAATT against Thrap6, the z-score was inactive: 0.249. For GCCCAGGACAAUAUAUCCGTT against Mylc2b, the z-score was inactive: 0.894. For GCUCAAUGGCUACACGGAUTT against Ace, the z-score was inactive: 1.18. In the case of “GGUAGUGGCUAAUGCUGUGTT against 2410002I01Rik”, the z-score is reported as inactive: 0.938. With GGUGUUUACCUGUGACGAGTT against Zfp509 the z-score was inactive: -0.816. In the case of GGAAAAAUUUAAAGAGGUCTT against Dnajb4, the z-score is reported as inactive: 0.929. With CGUCUGAACACUUCAAGACTT against Vamp8 the z-score was inactive: 1.6. In the case of GGUCCUUGUACAACCACCCTT against Acd, the z-score is reported as inactive: -0.287. With GAGUGGGAUUAUGUUCAAUTT against Krtap16-5 the z-score was inactive: -0.232. For GGAUCUGAGCCUUAACAAGTT against Grcc3f, the z-score was inactive: -0.352. In the case of CCAACUUUUAGUCUAGAAATT against Mat2a, the z-score is reported as inactive: -1.89. With GCUUGUAGACUUCCUCCUGTT against Olfr524 the z-score was inactive: 0.105. For “CUACAGUCGCAUCAACUAUTT against 1700055M20Rik”, the z-score was inactive: 0.933. For “GGUAAGCUAAAUGAAAUGGTT against 9930104E21Rik”, the z-score was inactive: 1.21. With “CGAAAGCAUUGCCUACUUUTT against 2700067D09Rik” the z-score was inactive: 0.231. For GGAAAAAUGCUACAUACAATT against Slc15a2, the z-score was inactive: -0.619. With “AGUUCCAGGCGCAGAAACCTT against D8Ertd738e” the z-score was inactive: 0.997. With GCUCUUCAUUGAAUCUCGGTT against Per1 the z-score was inactive: 0.502. In the case of GGCCUUGAGAGGCUAAUACTT against Tisp78, the z-score is reported as inactive: -1.74. For GGCAGAAAUGCUGGAGAUUTT against Ncald, the z-score was inactive: -0.871. In the case of GCUGACUUUUUGACAUUGUTT against Rab39, the z-score is reported as inactive: 0.0783. For GCGGUCAACUGGAAACUAATT against Dnaja3, the z-score was inactive: -1.67. In the case of GGUGAGGAUUGAUAAUGAGTT against Rit2, the z-score is reported as inactive: 0.842. In the case of “CGGCAUGGUGACCUAAUGCTT against 4632406N01Rik”, the z-score is reported as inactive: 0.313. For GGCAAAUCAAGCAGAAAAUTT against Ncor1, the z-score was inactive: 0.152. In the case of GGACCAUGCACGAUACUCUTT against Foxn1, the z-score is reported as inactive: 1.28. In the case of GGUAAUUGAAAGAGGAGAGTT against Vamp4, the z-score is reported as inactive: -1.14. With GGAAUGUGAACCUUAUAGATT against D9Wsu20e the z-score was inactive: 0.256. For GCCCUACCAAUACUACAGUTT against Lamc3, the z-score was inactive: 0.208.
